# In publication PMC12501038:
# Protein sequences, listed by entry. Tags and fused reporters are not part of them.
# UniProt Q8TB45: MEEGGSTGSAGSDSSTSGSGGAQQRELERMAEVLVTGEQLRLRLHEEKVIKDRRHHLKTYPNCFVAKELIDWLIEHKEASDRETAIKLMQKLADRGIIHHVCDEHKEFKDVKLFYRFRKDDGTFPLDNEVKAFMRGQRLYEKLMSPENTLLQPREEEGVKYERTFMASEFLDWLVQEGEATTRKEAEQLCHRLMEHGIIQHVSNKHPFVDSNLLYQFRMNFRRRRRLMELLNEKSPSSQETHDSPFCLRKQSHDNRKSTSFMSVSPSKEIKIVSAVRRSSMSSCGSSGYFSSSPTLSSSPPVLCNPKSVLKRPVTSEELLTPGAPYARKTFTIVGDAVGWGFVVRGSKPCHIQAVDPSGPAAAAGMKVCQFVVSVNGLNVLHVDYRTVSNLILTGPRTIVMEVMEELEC
# UniProt Q7Z6Z7: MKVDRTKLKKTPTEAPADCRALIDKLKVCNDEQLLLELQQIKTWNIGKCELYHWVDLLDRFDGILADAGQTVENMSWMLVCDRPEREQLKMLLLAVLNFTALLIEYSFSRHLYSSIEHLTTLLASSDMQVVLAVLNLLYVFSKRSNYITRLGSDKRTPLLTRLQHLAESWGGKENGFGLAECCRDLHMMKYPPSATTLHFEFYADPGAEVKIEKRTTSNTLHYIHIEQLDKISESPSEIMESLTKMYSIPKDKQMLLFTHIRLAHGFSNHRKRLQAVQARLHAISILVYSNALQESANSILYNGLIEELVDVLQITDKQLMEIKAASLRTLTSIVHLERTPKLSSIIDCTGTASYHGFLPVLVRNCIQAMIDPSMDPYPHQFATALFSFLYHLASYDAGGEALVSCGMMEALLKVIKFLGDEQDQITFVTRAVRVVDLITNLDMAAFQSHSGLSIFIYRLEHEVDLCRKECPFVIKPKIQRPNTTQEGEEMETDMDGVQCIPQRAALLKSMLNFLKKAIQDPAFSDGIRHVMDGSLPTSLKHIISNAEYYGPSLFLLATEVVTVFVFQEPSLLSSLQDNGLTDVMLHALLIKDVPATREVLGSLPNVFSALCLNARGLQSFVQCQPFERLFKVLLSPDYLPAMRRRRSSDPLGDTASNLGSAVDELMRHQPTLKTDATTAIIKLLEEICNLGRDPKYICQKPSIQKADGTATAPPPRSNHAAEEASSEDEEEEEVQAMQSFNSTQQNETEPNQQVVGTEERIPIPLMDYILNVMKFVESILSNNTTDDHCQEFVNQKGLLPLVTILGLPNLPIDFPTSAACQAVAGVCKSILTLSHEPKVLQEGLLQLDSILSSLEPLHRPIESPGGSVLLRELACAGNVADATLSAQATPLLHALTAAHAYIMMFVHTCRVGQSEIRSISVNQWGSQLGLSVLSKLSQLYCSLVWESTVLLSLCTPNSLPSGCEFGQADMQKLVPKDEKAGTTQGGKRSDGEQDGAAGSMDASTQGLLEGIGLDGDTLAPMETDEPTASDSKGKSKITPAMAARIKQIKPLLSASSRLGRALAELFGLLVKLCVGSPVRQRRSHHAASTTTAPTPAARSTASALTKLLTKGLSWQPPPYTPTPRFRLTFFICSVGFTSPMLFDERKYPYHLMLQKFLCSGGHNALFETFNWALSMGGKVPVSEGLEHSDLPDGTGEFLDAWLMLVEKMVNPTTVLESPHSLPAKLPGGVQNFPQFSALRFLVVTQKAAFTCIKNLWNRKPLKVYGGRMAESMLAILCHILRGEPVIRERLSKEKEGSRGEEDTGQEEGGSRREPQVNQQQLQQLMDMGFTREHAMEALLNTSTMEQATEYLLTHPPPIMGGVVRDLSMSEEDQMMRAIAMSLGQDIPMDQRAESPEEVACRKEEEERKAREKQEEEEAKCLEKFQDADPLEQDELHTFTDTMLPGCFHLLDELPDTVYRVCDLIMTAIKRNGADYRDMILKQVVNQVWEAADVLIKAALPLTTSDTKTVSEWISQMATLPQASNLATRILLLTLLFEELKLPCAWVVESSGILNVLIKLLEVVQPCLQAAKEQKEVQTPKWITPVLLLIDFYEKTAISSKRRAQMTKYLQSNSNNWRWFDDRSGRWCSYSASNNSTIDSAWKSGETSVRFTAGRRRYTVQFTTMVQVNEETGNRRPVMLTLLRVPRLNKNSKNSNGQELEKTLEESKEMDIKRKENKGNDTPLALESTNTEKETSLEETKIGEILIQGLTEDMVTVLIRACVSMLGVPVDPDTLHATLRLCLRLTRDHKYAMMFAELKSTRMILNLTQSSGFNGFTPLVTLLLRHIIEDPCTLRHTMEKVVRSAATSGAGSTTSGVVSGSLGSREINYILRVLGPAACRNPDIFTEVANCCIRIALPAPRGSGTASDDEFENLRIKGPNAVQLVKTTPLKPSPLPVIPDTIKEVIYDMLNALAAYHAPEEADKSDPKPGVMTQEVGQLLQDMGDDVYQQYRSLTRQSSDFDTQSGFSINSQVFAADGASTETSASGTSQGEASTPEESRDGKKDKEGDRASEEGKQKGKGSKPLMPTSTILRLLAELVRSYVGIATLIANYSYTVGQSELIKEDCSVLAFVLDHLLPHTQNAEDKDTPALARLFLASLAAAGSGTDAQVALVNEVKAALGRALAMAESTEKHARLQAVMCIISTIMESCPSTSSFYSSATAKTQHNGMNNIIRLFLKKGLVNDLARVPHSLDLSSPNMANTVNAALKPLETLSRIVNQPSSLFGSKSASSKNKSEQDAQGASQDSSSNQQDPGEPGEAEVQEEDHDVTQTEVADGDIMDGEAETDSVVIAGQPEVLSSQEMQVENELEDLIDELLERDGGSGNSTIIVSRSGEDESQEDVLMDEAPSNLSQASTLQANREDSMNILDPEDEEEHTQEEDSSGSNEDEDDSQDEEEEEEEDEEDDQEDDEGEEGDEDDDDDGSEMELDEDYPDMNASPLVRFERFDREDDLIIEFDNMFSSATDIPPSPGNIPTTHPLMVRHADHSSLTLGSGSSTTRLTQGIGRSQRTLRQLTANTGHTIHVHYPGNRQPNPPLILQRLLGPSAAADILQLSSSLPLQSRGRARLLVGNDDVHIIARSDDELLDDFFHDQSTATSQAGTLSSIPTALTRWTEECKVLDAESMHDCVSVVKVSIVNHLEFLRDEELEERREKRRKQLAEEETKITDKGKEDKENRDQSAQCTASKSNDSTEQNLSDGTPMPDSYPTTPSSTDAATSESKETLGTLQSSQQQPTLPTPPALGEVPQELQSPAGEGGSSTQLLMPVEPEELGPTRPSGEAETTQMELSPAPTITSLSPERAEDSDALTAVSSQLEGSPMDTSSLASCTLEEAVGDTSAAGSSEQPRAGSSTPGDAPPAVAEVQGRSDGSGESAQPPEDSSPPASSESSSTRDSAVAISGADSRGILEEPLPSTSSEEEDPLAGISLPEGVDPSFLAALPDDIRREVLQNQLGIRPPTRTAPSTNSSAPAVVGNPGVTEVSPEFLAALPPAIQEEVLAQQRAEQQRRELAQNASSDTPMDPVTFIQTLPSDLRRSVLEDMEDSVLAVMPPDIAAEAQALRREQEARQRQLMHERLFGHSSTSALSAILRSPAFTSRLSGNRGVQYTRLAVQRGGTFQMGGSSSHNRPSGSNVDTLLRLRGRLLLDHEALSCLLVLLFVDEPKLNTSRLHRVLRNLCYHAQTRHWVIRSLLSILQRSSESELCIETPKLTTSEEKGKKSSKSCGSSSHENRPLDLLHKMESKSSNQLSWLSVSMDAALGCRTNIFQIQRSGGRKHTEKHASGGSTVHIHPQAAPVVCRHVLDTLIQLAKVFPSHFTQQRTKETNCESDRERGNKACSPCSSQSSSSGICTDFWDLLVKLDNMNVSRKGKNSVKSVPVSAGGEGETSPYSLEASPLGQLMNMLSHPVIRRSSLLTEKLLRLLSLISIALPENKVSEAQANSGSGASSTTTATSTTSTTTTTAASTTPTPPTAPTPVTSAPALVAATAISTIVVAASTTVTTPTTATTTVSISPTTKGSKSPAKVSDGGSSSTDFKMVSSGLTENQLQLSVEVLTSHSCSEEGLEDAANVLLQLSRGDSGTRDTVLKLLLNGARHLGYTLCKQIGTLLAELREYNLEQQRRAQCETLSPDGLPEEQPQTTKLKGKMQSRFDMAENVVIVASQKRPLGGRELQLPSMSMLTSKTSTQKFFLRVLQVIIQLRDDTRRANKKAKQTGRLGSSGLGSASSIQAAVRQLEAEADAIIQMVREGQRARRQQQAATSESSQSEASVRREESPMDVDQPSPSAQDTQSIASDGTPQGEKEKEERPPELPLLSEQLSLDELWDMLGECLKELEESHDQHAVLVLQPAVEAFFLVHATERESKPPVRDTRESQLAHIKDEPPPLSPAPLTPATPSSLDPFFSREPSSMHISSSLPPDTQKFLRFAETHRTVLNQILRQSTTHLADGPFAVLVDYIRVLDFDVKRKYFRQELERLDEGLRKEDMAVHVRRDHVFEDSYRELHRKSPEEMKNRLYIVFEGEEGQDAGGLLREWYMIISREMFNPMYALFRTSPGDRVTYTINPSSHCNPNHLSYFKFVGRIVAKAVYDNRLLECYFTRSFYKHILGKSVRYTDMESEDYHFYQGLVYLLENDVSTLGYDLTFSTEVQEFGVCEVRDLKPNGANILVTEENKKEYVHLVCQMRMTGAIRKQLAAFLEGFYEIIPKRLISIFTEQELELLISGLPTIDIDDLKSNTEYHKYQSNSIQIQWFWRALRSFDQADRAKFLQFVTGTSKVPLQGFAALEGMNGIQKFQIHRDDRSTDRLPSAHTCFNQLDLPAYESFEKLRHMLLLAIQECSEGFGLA
# Results are given in words; binding and its absence hold for the method and conditions named. In cells and extracts the contact can be indirect. Here binding means that the protein was enriched with, or labelled near, the bait; the list need not be complete.
# Target: FLAG-DEPTOR (UniProt Q8TB45)
# Test: affinity purification with mass spectrometry; FLAG-DEPTOR immunoprecipitates analysed by mass spectrometry; cells not given
substance,measurement,value
"HUWE1 (endogenous, HEK293) (from UniProt Q7Z6Z7 1-4374) (enzyme)",binding,binds
